Results deposited as PubChem BioAssay AID1259308 (NCATS, 2017)
Aim: 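Knock-downs that increase output of a recombinant reporter protein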 (primary screen). Cell system: human HEK293 embryonic kidney cells stably expressing firefly luciferase (HEK-CMV-Luc2-Hygro). Reagents: single siRNA against human genes, 0.8 pmol siRNA per well. Time to read-out: 72 h. Measurement: 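Luciferase light (ONE-Glo) measured on one replicate plate set and viability (CellTiter-Glo) on the other, scaled to a negative control siRNA, with robust z-scores and luciferase per cell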. Reading the numbers: total luciferase, z-score and total luciferase, % of control: higher = more reporter protein produced. Rule for the call: 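An siRNA counts as active if its total luciferase robust z-score exceeds 3; genes with two or more such siRNAs out of three were retested with fresh siRNAs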. Meaning of the calls: active = raised luciferase; inactive = no rise.
Here is one part, drawn at random, of about 59,000 deposited reagents. Of all reagents, about 1,510 (2.6%) are marked active. 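Calls use total luciferase alone and ignore viability, so some active siRNAs may act by altering cell number.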 Reagents against one gene are numbered here. Further read-outs or replicates are left out here.

{"gene symbol": "IL2RA", "siRNA no.": 1, "total luciferase, z-score": 3.39, "total luciferase, % of control": 149, "call": "active"}
{"gene symbol": "IL2RA", "siRNA no.": 2, "total luciferase, z-score": 0.982, "total luciferase, % of control": 101, "call": "inactive"}
{"gene symbol": "IL2RA", "siRNA no.": 3, "total luciferase, z-score": 0.259, "total luciferase, % of control": 87, "call": "inactive"}
{"gene symbol": "NANP", "siRNA no.": 1, "total luciferase, z-score": -0.117, "total luciferase, % of control": 79.6, "call": "inactive"}
{"gene symbol": "NANP", "siRNA no.": 2, "total luciferase, z-score": -1.3, "total luciferase, % of control": 56.1, "call": "inactive"}
{"gene symbol": "NANP", "siRNA no.": 3, "total luciferase, z-score": -1.34, "total luciferase, % of control": 55.2, "call": "inactive"}
{"gene symbol": "TIAL1", "siRNA no.": 1, "total luciferase, z-score": -0.192, "total luciferase, % of control": 78.1, "call": "inactive"}
{"gene symbol": "TIAL1", "siRNA no.": 2, "total luciferase, z-score": 1.72, "total luciferase, % of control": 116, "call": "inactive"}
{"gene symbol": "TIAL1", "siRNA no.": 3, "total luciferase, z-score": 0.633, "total luciferase, % of control": 94.5, "call": "inactive"}
{"gene symbol": "DHRS1", "siRNA no.": 1, "total luciferase, z-score": 1.23, "total luciferase, % of control": 106, "call": "inactive"}
{"gene symbol": "DHRS1", "siRNA no.": 2, "total luciferase, z-score": -1.22, "total luciferase, % of control": 57.6, "call": "inactive"}
{"gene symbol": "DHRS1", "siRNA no.": 3, "total luciferase, z-score": 0.453, "total luciferase, % of control": 90.9, "call": "inactive"}
{"gene symbol": "CADM2", "siRNA no.": 1, "total luciferase, z-score": -0.609, "total luciferase, % of control": 69.8, "call": "inactive"}
{"gene symbol": "CADM2", "siRNA no.": 2, "total luciferase, z-score": 1.84, "total luciferase, % of control": 118, "call": "inactive"}
{"gene symbol": "CADM2", "siRNA no.": 3, "total luciferase, z-score": 0.922, "total luciferase, % of control": 100, "call": "inactive"}

Continued; the last 2 above are carried over.
{"gene symbol": "CADM2", "siRNA no.": 2, "total luciferase, z-score": 1.84, "total luciferase, % of control": 118, "call": "inactive"}
{"gene symbol": "CADM2", "siRNA no.": 3, "total luciferase, z-score": 0.922, "total luciferase, % of control": 100, "call": "inactive"}
{"gene symbol": "KLHL24", "siRNA no.": 1, "total luciferase, z-score": 0.214, "total luciferase, % of control": 86.1, "call": "inactive"}
{"gene symbol": "KLHL24", "siRNA no.": 2, "total luciferase, z-score": 0.73, "total luciferase, % of control": 96.4, "call": "inactive"}
{"gene symbol": "KLHL24", "siRNA no.": 3, "total luciferase, z-score": -0.152, "total luciferase, % of control": 78.9, "call": "inactive"}
{"gene symbol": "IFNW1", "siRNA no.": 1, "total luciferase, z-score": 0.138, "total luciferase, % of control": 84.6, "call": "inactive"}
{"gene symbol": "IFNW1", "siRNA no.": 2, "total luciferase, z-score": 0.58, "total luciferase, % of control": 93.4, "call": "inactive"}
{"gene symbol": "IFNW1", "siRNA no.": 3, "total luciferase, z-score": -1.83, "total luciferase, % of control": 45.5, "call": "inactive"}
{"gene symbol": "HNRNPH3", "siRNA no.": 1, "total luciferase, z-score": -1.02, "total luciferase, % of control": 61.6, "call": "inactive"}
{"gene symbol": "HNRNPH3", "siRNA no.": 2, "total luciferase, z-score": 1.82, "total luciferase, % of control": 118, "call": "inactive"}
{"gene symbol": "HNRNPH3", "siRNA no.": 3, "total luciferase, z-score": -0.0155, "total luciferase, % of control": 81.6, "call": "inactive"}
{"gene symbol": "TMEM203", "siRNA no.": 1, "total luciferase, z-score": 1.51, "total luciferase, % of control": 112, "call": "inactive"}
{"gene symbol": "TMEM203", "siRNA no.": 2, "total luciferase, z-score": 0.62, "total luciferase, % of control": 94.2, "call": "inactive"}
{"gene symbol": "TMEM203", "siRNA no.": 3, "total luciferase, z-score": 0.228, "total luciferase, % of control": 86.4, "call": "inactive"}
{"gene symbol": "PGLYRP1", "siRNA no.": 1, "total luciferase, z-score": 0.117, "total luciferase, % of control": 84.2, "call": "inactive"}
{"gene symbol": "PGLYRP1", "siRNA no.": 2, "total luciferase, z-score": 0.0241, "total luciferase, % of control": 82.4, "call": "inactive"}
{"gene symbol": "PGLYRP1", "siRNA no.": 3, "total luciferase, z-score": -0.593, "total luciferase, % of control": 70.1, "call": "inactive"}
{"gene symbol": "BTF3L4", "siRNA no.": 1, "total luciferase, z-score": -0.434, "total luciferase, % of control": 73.3, "call": "inactive"}
{"gene symbol": "BTF3L4", "siRNA no.": 2, "total luciferase, z-score": 0.674, "total luciferase, % of control": 95.3, "call": "inactive"}
{"gene symbol": "BTF3L4", "siRNA no.": 3, "total luciferase, z-score": -0.26, "total luciferase, % of control": 76.7, "call": "inactive"}
